Reference: patent publication US9187431B2, “Substituted phenyl(oxy/thio)alkanol derivatives” (Bayer Intellectual Property GMBH, priority 2009, dated 2015)
Some of these results come from one statement about several compounds together.

Columns and labels:
[1] = test system: Sphaerotheca fitliginea; test: Sphaerotheca test (cucumber)/protective; assay type: in vivo, Sphaerotheca fitliginea on cucumber; details: 500 ppm active compound, protective, evaluation 7 days after inoculation
[2] = test system: Fusarium proliferatum; assay type: cell-based; details: 50 μM, 5 days, HPLC-MS/MS, compared to active compound-free control
[3] = test system: Fusarium graminearum; assay type: cell-based; details: 50 μM, 7 days, HPLC-MS/MS, compared to active compound-free control
[4] = test system: Venturia inaequalis; test: Venturia test (apple)/protective; assay type: in vivo, Venturia inaequalis on apple; details: 100 ppm active compound, protective, evaluation 10 days after inoculation
[5] = test system: Blumeria graminis f.sp. hordei; test: Blumeria graminis test (barley)/protective; assay type: in vivo, Blumeria graminis f.sp. hordei on barley; details: 500 ppm active compound, protective, evaluation 7 days after inoculation
[6] = test system: Leptosphaeria nodorum; test: Leptosphaeria nodorum test (wheat)/protective; assay type: in vivo, Leptosphaeria nodorum on wheat; details: 500 ppm active compound, protective, evaluation 8 days after inoculation
[7] = test system: Uromyces appendiculatus; test: Uromyces test (bean)/protective; assay type: in vivo, Uromyces appendiculatus on bean; details: 100 ppm active compound, protective, evaluation 10 days after inoculation

CC(C)(C)C(O)(COc1ccc(Br)c(Cl)c1)c1cncnc1 (stereo not drawn) [Compound 11]
efficacy [1]: ≥ 70%
inhibition of fumonisin FB1 production [2]: > 80%
inhibition of DON/AcDON production [3]: > 80%
efficacy [4]: ≥ 70%
efficacy [5]: ≥ 70%
efficacy [6]: ≥ 70%
efficacy [7]: ≥ 70%

CC(C)C(O)(COc1ccc(Br)cc1Cl)c1cncnc1 (stereo not drawn) [Compound 14]
efficacy [1]: ≥ 70%
efficacy [5]: ≥ 70%
efficacy [6]: ≥ 70%
efficacy [7]: ≥ 70%

CC(C)(C)C(O)(COc1ccc(Br)c(F)c1)Cn1cncn1 (stereo not drawn) [Compound 30]
efficacy [1]: ≥ 70%
efficacy [4]: ≥ 70%
efficacy [5]: ≥ 70%
efficacy [6]: ≥ 70%
efficacy [7]: ≥ 70%

CC(C)(C)C(O)(COc1ccc(Br)cc1F)Cn1cncn1 (stereo not drawn) [Compound 8]
efficacy [1]: ≥ 70%
inhibition of fumonisin FB1 production [2]: > 80%
inhibition of DON/AcDON production [3]: > 80%
efficacy [4]: ≥ 70%
efficacy [5]: ≥ 70%
efficacy [6]: ≥ 70%
efficacy [7]: ≥ 70%

Cc1cc(OCC(O)(Cn2cncn2)C2(C)CC2)c(C)cc1I (stereo not drawn) [Compound 45]
efficacy [1]: ≥ 70%

COc1cc(OCC(O)(Cn2cncn2)C(C)(C)C)ccc1Br (stereo not drawn) [Compound 27]
efficacy [1]: ≥ 70%

CC(C)(C)C(O)(COc1ccc(Br)c(Cl)c1)Cn1cncn1 (stereo not drawn) [Compound 18]
efficacy [1]: ≥ 70%
efficacy [4]: ≥ 70%
efficacy [7]: ≥ 70%

Cc1cc(OCC(O)(Cn2cncn2)C(C)(C)C)cc(C)c1Br (stereo not drawn) [Compound 23]
efficacy [1]: ≥ 70%

Cc1cc(OCC(O)(Cn2cncn2)C2(C)CC2)cc(C)c1I (stereo not drawn) [Compound 46]
efficacy [1]: ≥ 70%

CC(C)(C)C(O)(COc1cc(F)c(Br)c(F)c1)Cn1cncn1 (stereo not drawn) [Compound 33]
efficacy [1]: ≥ 70%
efficacy [7]: ≥ 70%

COc1cc(Br)ccc1OCC(O)(Cn1cncn1)C1(C)CC1 (stereo not drawn) [Compound 50]
efficacy [1]: ≥ 70%
efficacy [4]: ≥ 70%
efficacy [7]: ≥ 70%

CC(C)(C)C(O)(COc1ccc(Br)c(F)c1F)Cn1cncn1 (stereo not drawn) [Compound 34]
efficacy [1]: ≥ 70%

Cc1cc(I)ccc1OCC(O)(Cn1cncn1)C1(C)CC1 (stereo not drawn) [Compound 47]
efficacy [1]: ≥ 70%
efficacy [4]: ≥ 70%
efficacy [7]: ≥ 70%

CC(C)(C)C(O)(COc1ccc(Br)cc1Cl)Cn1cncn1 (stereo not drawn) [Compound 26]
efficacy [1]: ≥ 70%
efficacy [4]: ≥ 70%
efficacy [7]: ≥ 70%

CC1(C(O)(COc2c(F)cc(Br)cc2F)Cn2cncn2)CC1 (stereo not drawn) [Compound 52]
efficacy [1]: ≥ 70%
efficacy [4]: ≥ 70%
efficacy [7]: ≥ 70%

OC(COc1c(F)cc(Br)cc1F)(Cn1cncn1)C1(Cl)CC1 (stereo not drawn) [Compound 55]
efficacy [1]: ≥ 70%

CC(C)(C)C(O)(COc1ccc(Br)c(C(F)(F)F)c1)Cn1cncn1 (stereo not drawn) [Compound 32]
efficacy [1]: ≥ 70%

Cc1cc(OCC(O)(Cn2cncn2)C(C)(C)C)cc(C)c1I (stereo not drawn) [Compound 37]
efficacy [1]: ≥ 70%
efficacy [5]: ≥ 70%
efficacy [6]: ≥ 70%

CC1(C(O)(COc2ccc(Br)c(F)c2F)Cn2cncn2)CC1 (stereo not drawn) [Compound 44]
efficacy [1]: ≥ 70%

Cc1cc(I)cc(C)c1OCC(O)(Cn1cncn1)C(C)(C)C (stereo not drawn) [Compound 38]
efficacy [1]: ≥ 70%

CC(C)(C)C(O)(COc1cc(F)c(Br)cc1F)Cn1cncn1 (stereo not drawn) [Compound 29]
efficacy [1]: ≥ 70%
efficacy [4]: ≥ 70%
efficacy [5]: ≥ 70%
efficacy [6]: ≥ 70%
efficacy [7]: ≥ 70%

Cc1cc(I)ccc1OCC(O)(Cn1cncn1)C(C)(C)C (stereo not drawn) [Compound 7]
efficacy [1]: ≥ 70%
inhibition of fumonisin FB1 production [2]: > 80%
inhibition of DON/AcDON production [3]: > 80%
efficacy [4]: ≥ 70%
efficacy [5]: ≥ 70%
efficacy [6]: ≥ 70%
efficacy [7]: ≥ 70%

CC1(C(O)(COc2ccc(Br)c(Cl)c2)Cn2cncn2)CC1 (stereo not drawn) [Compound 53]
efficacy [1]: ≥ 70%
efficacy [4]: ≥ 70%
efficacy [7]: ≥ 70%

CC(C)(C)C(O)(Cn1cncn1)C[S+]([O-])c1cc(C(F)(F)F)ccc1Cl (stereo not drawn) [Compound 5]
efficacy [1]: ≥ 70%
inhibition of fumonisin FB1 production [2]: > 80%

Cc1cc(Br)cc(C)c1OCC(O)(Cn1cncn1)C(C)(C)C (stereo not drawn) [Compound 24]
efficacy [1]: ≥ 70%

Cc1cc(Br)ccc1OCC(O)(Cn1cncn1)C1(C)CC1 (stereo not drawn) [Compound 51]
efficacy [1]: ≥ 70%
efficacy [4]: ≥ 70%
efficacy [7]: ≥ 70%

Cc1cc(Br)cc(Cl)c1OCC(O)(Cn1cncn1)C(C)(C)C (stereo not drawn) [Compound 25]
efficacy [1]: ≥ 70%
efficacy [4]: ≥ 70%
efficacy [5]: ≥ 70%
efficacy [6]: ≥ 70%
efficacy [7]: ≥ 70%

CC1(C(O)(COc2ccc(Br)c(OC(F)(F)F)c2)Cn2cncn2)CC1 (stereo not drawn) [Compound 49]
efficacy [1]: ≥ 70%

Cc1cc(Br)ccc1OCC(O)(Cn1cncn1)C(C)(C)C (stereo not drawn) [Compound 22]
efficacy [1]: ≥ 70%
efficacy [4]: ≥ 70%
efficacy [5]: ≥ 70%
efficacy [6]: ≥ 70%
efficacy [7]: ≥ 70%

CC(C)(C)C(O)(COc1c(F)cc(Br)cc1Cl)Cn1cncn1 (stereo not drawn) [Compound 28]
efficacy [1]: ≥ 70%
efficacy [4]: ≥ 70%
efficacy [5]: ≥ 70%
efficacy [6]: ≥ 70%
efficacy [7]: ≥ 70%

OC(COc1ccc(F)cc1C(F)(F)F)(Cn1cncn1)C1(Cl)CC1 (stereo not drawn) [Compound 10]
inhibition of fumonisin FB1 production [2]: > 80%
inhibition of DON/AcDON production [3]: > 80%

CC(C)(C)C(O)(COc1c(Cl)cc(Br)cc1Cl)Cn1cncn1 (stereo not drawn) [Compound 21]
efficacy [1]: ≥ 70%

CC(C)(C)C(O)(COc1ccc(Br)c(OC(F)(F)F)c1)Cn1cncn1 (stereo not drawn) [Compound 35]
efficacy [1]: ≥ 70%

COc1cc(Br)ccc1OCC(O)(Cn1cncn1)C(C)(C)C (stereo not drawn) [Compound 20]
efficacy [1]: ≥ 70%

Cc1cc(OCC(O)(Cn2cncn2)C(C)(C)C)c(C)cc1I (stereo not drawn) [Compound 36]
efficacy [1]: ≥ 70%

CC(C)(C)C(O)(COc1ccc(Cl)c(C(F)(F)F)c1)Cn1cncn1 (stereo not drawn) [Compound 4]
efficacy [1]: ≥ 70%
inhibition of fumonisin FB1 production [2]: > 80%

CC1(C(O)(COc2ccc(Br)cc2Cl)Cn2cncn2)CC1 (stereo not drawn) [Compound 41]
efficacy [1]: ≥ 70%
efficacy [4]: ≥ 70%
efficacy [7]: ≥ 70%

CC(C)(C)C(O)(COc1c(F)cc(Br)cc1F)Cn1cncn1 (stereo not drawn) [Compound 31]
efficacy [1]: ≥ 70%
efficacy [4]: ≥ 70%
efficacy [5]: ≥ 70%
efficacy [6]: ≥ 70%
efficacy [7]: ≥ 70%

CC1(C(O)(COc2ccc(Br)c(F)c2)Cn2cncn2)CC1 (stereo not drawn) [Compound 54]
efficacy [1]: ≥ 70%

CC1(C(O)(COc2cc(F)c(Br)c(F)c2)Cn2cncn2)CC1 (stereo not drawn) [Compound 43]
efficacy [1]: ≥ 70%
efficacy [4]: ≥ 70%
efficacy [7]: ≥ 70%

COc1cc(OCC(O)(c2cncnc2)C(C)(C)C)ccc1Br (stereo not drawn) [Compound 16]
efficacy [1]: ≥ 70%

COc1cc(OCC(O)(Cn2cncn2)C2(C)CC2)ccc1Br (stereo not drawn) [Compound 42]
efficacy [1]: ≥ 70%

Cc1cc(OCC(O)(Cn2cncn2)C2(C)CC2)cc(C)c1Br (stereo not drawn) [Compound 39]
efficacy [1]: ≥ 70%

CC(C)C(O)(COc1ccc(Br)cc1F)c1cncnc1 (stereo not drawn) [Compound 15]
efficacy [1]: ≥ 70%

Cc1cc(Br)cc(Cl)c1OCC(O)(Cn1cncn1)C1(C)CC1 (stereo not drawn) [Compound 40]
efficacy [1]: ≥ 70%
efficacy [4]: ≥ 70%
efficacy [7]: ≥ 70%

Cc1cc(OCC(O)(Cn2cncn2)C2(C)CC2)ccc1Br (stereo not drawn) [Compound 48]
efficacy [1]: ≥ 70%

CC1(C(O)(COc2c(F)cc(Br)cc2Cl)Cn2cncn2)CC1 (stereo not drawn) [Compound 56]
efficacy [1]: ≥ 70%

Cc1cc(OCC(O)(Cn2cncn2)C(C)(C)C)ccc1Br (stereo not drawn) [Compound 19]
efficacy [1]: ≥ 70%
efficacy [4]: ≥ 70%
efficacy [5]: ≥ 70%
efficacy [6]: ≥ 70%
efficacy [7]: ≥ 70%

OC(COc1ccc(C(F)(F)F)cc1Cl)(Cn1cncn1)C1(Cl)CC1 (stereo not drawn) [Compound 9]
inhibition of fumonisin FB1 production [2]: > 80%
inhibition of DON/AcDON production [3]: > 80%

CC(C)(C)C(O)(COc1ccc(I)cc1F)c1cncnc1 (stereo not drawn) [Compound 17]
efficacy [1]: ≥ 70%
